# Results from publication PMC6797480.
# B1: Argonaute-2 (protein, UniProt C5J0H4 1-992)
# chain: MILNARYLYIPCRQKQQQQQQQPQQQQQHQQKQQSQQQQQQQQQQQRSKEQGSQQQQRPQQQAQQQQPSQQQQQSQKQQHPQQQQQQRPQKQQQQFQQDQRPQQQQQQLQKQQQQQGQSWRPQSHDPSPASGSHSHSSSPSHAAALERVEEDFSKIKIDKQKIHSSALLPVLMRPNAHGTRGRAIKVEVNYIQLLLERLIPTAYHYDVDIQPAASRKWQRLAFSEFTKQMFPNHGFAFDGHKNAYAARRLQADVYEQEVKVRDEGRERRFKVAMKEAAVLDMTCLKTYMNNGSTLDKPMSAIQCLDIVLRTAYENNPRFIKFKKSIYVKPDRPDDIGSNHELWYGLFQSALLGARPFLNIDVSHKAFPTGGPVLRILVDMNRGQVPDRVTDWMSRDLHDFLKGMELSYTGPDGVSKLFKYNSIKSPANQQKFKLENGTEMTIDQYFRSKNKQLRYPSLPVLHVGSLVRNVMLPIELCSIPPGQALNKKHPDQCTQFIIRKSATDTATRKRKIMDLFNQIGYNNAPTIKEFGVSVGNNFETVDGRILDPPELSYRNDRRVKPMRGVWRADNMNFIIPSTEITRRELSWTILNLDGRTRPDAIDEFGRNIYQMSLKQGVQLQQFSMKNNFYEPRDMRFAVKDLDNIFDELKKRKIDLVFVVIPSPGRDGDVYAKVKQKAELCVGLLTQCIKSFTLDKKRGDMSTISNIWLKINAKTNGSNHVLAKNFKPPIARKTVMYVGADVTHPSPEQTNIPSVVGVAASYDLEGFRYNCCYRLQGPKDEMIRDLQNIVIKQLRQFKQTNQSLPELIMYYRDGVSEGQFQEVLTIELRAMQAAAASVQQGYKPNITFIVVQKRHHARFFPTANCPTEGRNNNVQPGTIVDRYITAPNQYQFFLVSHAAVQGVAKPTKYCVLYDDENCNPDQLQALTYYLCHMFTRCNRAVSYPAPTYYAHLAAYRGRVYIKDRPLNMNNLTKEYERMQIRTEIQDGHPMFFV
# Target: C-terminal FLAG tagged-Piwi4 (Aedes aegypti) (UniProt Q171B3)
# Experiment: affinity purification with mass spectrometry; C-terminal FLAG tagged-Piwi4 expressed in Aag2 cells as bait; lysis in IP-buffer (10 mM Tris pH 7.5, 2.5 mM EDTA, 250 mM NaCl) + 0.5% NP-40; anti-FLAG beads 6-16 hr at 4°C; eluted with 3x Flag peptide; Orbitrap LC-MS, MaxQuant
binder,measurement,value
B1,binding,binds

# These are yes or no findings as the source states them, for the method shown. Binding seen in cells or lysates may run through a third protein. These calls come from enrichment with a bait or labelling near it, and not all partners need be listed.
